Results deposited as PubChem BioAssay AID1259254 (NCATS, 2017).

Assay: 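Gene knock-downs that lead to re-replication, shown by excess G2 DNA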 (primary screen)
Cells: human HCT116 colorectal cancer cells
Reagent: single siRNA against human genes
Time to read-out: 3 days
Detection: 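Imaged Hoechst DNA stain sorts each cell into a cycle phase by DNA amount; per plate, G2 fraction set to 0% for non-targeting and 100% for GMNN siRNA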
Direction: G2 robust z-score and G2 cells, % of GMNN control: higher = more G2 cells, more excess DNA replication; raw share of cells in G2: higher = larger share of cells with G2 DNA content
Hit rule: 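An siRNA counts as active if its G2 robust z-score lies at least 5 MADs above the screen median; here such calls match roughly 38% of GMNN control or more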
Shown is an unselected part of about 59,000 deposited reagents. Of all reagents, about 1,550 (2.6%) are marked active. 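G2 share is only a proxy for re-replication; each gene was hit by three separate siRNAs, and active genes were retested.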 Raw values are not corrected between plates. Reagents against one gene are numbered here. Not stated in the record: the amount of reagent.

gene	reagent	G2 robust z-score	G2 cells, % of GMNN control	raw share of cells in G2 (%)	activity call
MINPP1 (multiple inositol-polyphosphate phosphatase 1)	1	2.01	17.1	10.4	inactive
MINPP1 (multiple inositol-polyphosphate phosphatase 1)	2	-0.274	1.04	4.62	inactive
MINPP1 (multiple inositol-polyphosphate phosphatase 1)	3	-0.834	-2.9	2.62	inactive
PARS2 (prolyl-tRNA synthetase 2, mitochondrial)	1	-0.0751	2.44	7.27	inactive
PARS2 (prolyl-tRNA synthetase 2, mitochondrial)	2	-1.12	-4.88	2.39	inactive
PARS2 (prolyl-tRNA synthetase 2, mitochondrial)	3	0.762	8.33	6.95	inactive
TIMM44 (translocase of inner mitochondrial membrane 44)	1	5.42	41.1	17.1	active
TIMM44 (translocase of inner mitochondrial membrane 44)	2	-0.179	1.71	7.15	inactive
TIMM44 (translocase of inner mitochondrial membrane 44)	3	-0.572	-1.06	5.23	inactive
LSM12 (LSM12 homolog)	1	-0.972	-3.87	2.54	inactive
LSM12 (LSM12 homolog)	2	-0.303	0.838	3.58	inactive
LSM12 (LSM12 homolog)	3	-0.187	1.65	2.3	inactive
PSD3 (pleckstrin and Sec7 domain containing 3)	1	0.703	7.91	7.39	inactive
PSD3 (pleckstrin and Sec7 domain containing 3)	2	-0.122	2.11	4.85	inactive
PSD3 (pleckstrin and Sec7 domain containing 3)	3	5.72	43.2	18.4	active
CNNM2	1	-0.694	-1.92	2.92	inactive
CNNM2	2	5.48	41.5	21.7	active
CNNM2	3	-0.5	-0.548	3.01	inactive
LINC02939 (long independently transcribed non-coding RNA 2939)	1	-0.767	-2.43	2.49	inactive
LINC02939 (long independently transcribed non-coding RNA 2939)	2	0.286	4.98	4.81	inactive
LINC02939 (long independently transcribed non-coding RNA 2939)	3	0.288	4.99	5.55	inactive
ANXA7 (annexin A7)	1	-0.56	-0.971	4.39	inactive
ANXA7 (annexin A7)	2	-0.306	0.817	5.36	inactive
ANXA7 (annexin A7)	3	-1.18	-5.31	2.02	inactive
UBTD1 (ubiquitin domain containing 1)	1	1.42	12.9	9.82	inactive
UBTD1 (ubiquitin domain containing 1)	2	1.72	15.1	10.9	inactive
UBTD1 (ubiquitin domain containing 1)	3	-0.832	-2.89	1.59	inactive
ZNF442 (zinc finger protein 442)	1	2.27	18.9	9.47	inactive
ZNF442 (zinc finger protein 442)	2	1.02	10.1	10.5	inactive
ZNF442 (zinc finger protein 442)	3	-0.0504	2.61	4.45	inactive
SLC25A33	1	1.84	15.9	10.7	inactive
SLC25A33	2	0.199	4.37	5.78	inactive
SLC25A33	3	-0.66	-1.67	4.73	inactive
DNAJA1P4	1	-0.74	-2.24	3.07	inactive
DNAJA1P4	2	0.449	6.13	5.29	inactive
DNAJA1P4	3	-0.119	2.13	3.94	inactive
ARHGEF5 (Rho guanine nucleotide exchange factor 5)	1	1.21	11.5	10.2	inactive
ARHGEF5 (Rho guanine nucleotide exchange factor 5)	2	1.12	10.8	8.2	inactive
ARHGEF5 (Rho guanine nucleotide exchange factor 5)	3	-0.968	-3.84	1.99	inactive
RBP3 (retinol binding protein 3)	1	0.926	9.49	8.24	inactive
RBP3 (retinol binding protein 3)	2	1.1	10.7	8.77	inactive
RBP3 (retinol binding protein 3)	3	3.08	24.7	12.3	inactive
STBD1 (starch binding domain 1)	1	-0.285	0.964	5.56	inactive
STBD1 (starch binding domain 1)	2	0.458	6.19	6.35	inactive
STBD1 (starch binding domain 1)	3	-0.0714	2.47	4.22	inactive
IL18R1 (interleukin 18 receptor 1)	1	0.639	7.46	7.38	inactive
IL18R1 (interleukin 18 receptor 1)	2	2.18	18.3	11.7	inactive
IL18R1 (interleukin 18 receptor 1)	3	0.823	8.76	8.52	inactive
FBXL12 (F-box and leucine rich repeat protein 12)	1	-0.274	1.04	3.98	inactive
FBXL12 (F-box and leucine rich repeat protein 12)	2	0.542	6.78	7.13	inactive
FBXL12 (F-box and leucine rich repeat protein 12)	3	-0.108	2.21	3.92	inactive
KCND3 (potassium voltage-gated channel subfamily D member 3)	1	-1.17	-5.25	3.38	inactive
KCND3 (potassium voltage-gated channel subfamily D member 3)	2	1.5	13.5	9.36	inactive
KCND3 (potassium voltage-gated channel subfamily D member 3)	3	-1.13	-5.01	2.42	inactive
C9orf43 (chromosome 9 open reading frame 43)	1	-0.106	2.22	4.45	inactive
C9orf43 (chromosome 9 open reading frame 43)	2	2.97	23.9	12.3	inactive
C9orf43 (chromosome 9 open reading frame 43)	3	-0.222	1.41	3.7	inactive
CDK8 (cyclin dependent kinase 8)	1	-0.0762	2.43	6.41	inactive
CDK8 (cyclin dependent kinase 8)	2	-1.17	-5.27	3.64	inactive
CDK8 (cyclin dependent kinase 8)	3	0.431	6	6.14	inactive
MMS19 (MMS19 cytosolic iron-sulfur assembly component)	1	3.36	26.6	13.8	inactive
MMS19 (MMS19 cytosolic iron-sulfur assembly component)	2	-0.768	-2.44	3.34	inactive
MMS19 (MMS19 cytosolic iron-sulfur assembly component)	3	0.0501	3.32	7.02	inactive
ARFGEF2 (ARF guanine nucleotide exchange factor 2)	1	2.86	23.1	15.8	inactive
ARFGEF2 (ARF guanine nucleotide exchange factor 2)	2	0.0327	3.2	5.28	inactive
ARFGEF2 (ARF guanine nucleotide exchange factor 2)	3	-0.717	-2.08	2.65	inactive
NABP1 (nucleic acid binding protein 1)	1	-0.443	-0.147	4.3	inactive
NABP1 (nucleic acid binding protein 1)	2	-0.722	-2.11	3.46	inactive
NABP1 (nucleic acid binding protein 1)	3	3.63	28.5	17.5	inactive
VXN (vexin)	1	1.54	13.8	7.59	inactive
VXN (vexin)	2	0.358	5.49	5.57	inactive
VXN (vexin)	3	-0.225	1.38	3.6	inactive
CD300A (CD300a molecule)	1	1.53	13.7	11.9	inactive
CD300A (CD300a molecule)	2	-0.914	-3.46	3	inactive
CD300A (CD300a molecule)	3	-0.873	-3.17	2.78	inactive
PMM1 (phosphomannomutase 1)	1	-0.919	-3.5	3.77	inactive
PMM1 (phosphomannomutase 1)	2	-0.272	1.06	4.5	inactive
PMM1 (phosphomannomutase 1)	3	5.63	42.6	20.9	active
ZSCAN5B (zinc finger and SCAN domain containing 5B)	1	1.94	16.6	9.68	inactive
ZSCAN5B (zinc finger and SCAN domain containing 5B)	2	1.35	12.4	8.7	inactive
ZSCAN5B (zinc finger and SCAN domain containing 5B)	3	0.587	7.1	7.05	inactive
STRC (stereocilin)	1	3.48	27.4	13.4	inactive
STRC (stereocilin)	2	-0.617	-1.37	2.5	inactive
STRC (stereocilin)	3	1.37	12.6	6.75	inactive
POU3F1 (POU class 3 homeobox 1)	1	0.958	9.71	7.31	inactive
POU3F1 (POU class 3 homeobox 1)	2	-0.208	1.5	5.55	inactive
POU3F1 (POU class 3 homeobox 1)	3	0.669	7.67	5.89	inactive
